Results deposited as PubChem BioAssay AID652243 (Drosophila RNAi Screening Center, 2013).

- Test: 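Fly genes required for human androgen receptor driven transcription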 (primary screen)
- Cell system: Drosophila S2R+ cells
- Knock-down reagent: long dsRNA against Drosophila genes
- Duration: 72 h (48 h, then 24 h hormone)
- Challenge: synthetic androgen R1881 at 10 nM for 24 h
- Detection: 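Firefly light from an androgen-responsive reporter and Renilla control light per well, raw and unnormalised, for each of two replicates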
- Scale: firefly reporter light: higher = more light from androgen-responsive reporter; Renilla control light: higher = more constitutive control signal (cell number, transfection)
- Active means: 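Hit when the log firefly-to-Renilla ratio dropped or increased by a fixed fold versus the mean of GFP or LacZ controls across duplicate plates; lowering cut given as 1.5 and as 3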
- Calls: active = hit: reporter lowered or raised; inactive = no hit
In all, the deposit lists about 24,000 reagents; shown is a random part of those that have a named target and a result. Over the whole deposit, 246 (1%) got an active call. 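Plates not normalised; calls are printed but the firefly/Renilla ratio behind them is not deposited; fold cut for lowering reported inconsistently.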 Raw values are not corrected between plates. Reagents against one gene are numbered here. Names joined by + are all predicted targets of the reagent. Not stated in the record: the amount of reagent.

{"gene":"VhaSFD","reagent no.":1,"firefly reporter light, replicate 1":5.04e5,"firefly reporter light, replicate 2":9.15e5,"Renilla control light, replicate 1":1.23e6,"Renilla control light, replicate 2":1.58e6,"Outcome":"inactive"}
{"gene":"CG14740","reagent no.":1,"firefly reporter light, replicate 1":54420,"firefly reporter light, replicate 2":1.12e5,"Renilla control light, replicate 1":4.64e5,"Renilla control light, replicate 2":6.43e5,"Outcome":"inactive"}
{"gene":"CG8319","reagent no.":1,"firefly reporter light, replicate 1":52789,"firefly reporter light, replicate 2":1.06e5,"Renilla control light, replicate 1":1.75e6,"Renilla control light, replicate 2":1.80e6,"Outcome":"inactive"}
{"gene":"CG8319","reagent no.":2,"firefly reporter light, replicate 1":5.73e5,"firefly reporter light, replicate 2":7.71e5,"Renilla control light, replicate 1":9.21e5,"Renilla control light, replicate 2":1.05e6,"Outcome":"inactive"}
{"gene":"CG10510","reagent no.":1,"firefly reporter light, replicate 1":23811,"firefly reporter light, replicate 2":51524,"Renilla control light, replicate 1":2.97e5,"Renilla control light, replicate 2":3.83e5,"Outcome":"inactive"}
{"gene":"CG13102 + Rcd-1r","reagent no.":1,"firefly reporter light, replicate 1":2.10e5,"firefly reporter light, replicate 2":2.61e5,"Renilla control light, replicate 1":2.25e6,"Renilla control light, replicate 2":2.03e6,"Outcome":"inactive"}
{"gene":"c12.2","reagent no.":1,"firefly reporter light, replicate 1":2.16e5,"firefly reporter light, replicate 2":2.29e5,"Renilla control light, replicate 1":2.75e6,"Renilla control light, replicate 2":2.78e6,"Outcome":"inactive"}
{"gene":"c12.2","reagent no.":2,"firefly reporter light, replicate 1":3.10e5,"firefly reporter light, replicate 2":2.44e5,"Renilla control light, replicate 1":7.82e5,"Renilla control light, replicate 2":9.13e5,"Outcome":"inactive"}
{"gene":"Syn1","reagent no.":1,"firefly reporter light, replicate 1":2.12e5,"firefly reporter light, replicate 2":2.91e5,"Renilla control light, replicate 1":2.18e6,"Renilla control light, replicate 2":2.73e6,"Outcome":"inactive"}
{"gene":"Syn1","reagent no.":2,"firefly reporter light, replicate 1":2.57e5,"firefly reporter light, replicate 2":1.81e5,"Renilla control light, replicate 1":1.65e6,"Renilla control light, replicate 2":1.58e6,"Outcome":"inactive"}
{"gene":"Syn1","reagent no.":3,"firefly reporter light, replicate 1":5.20e5,"firefly reporter light, replicate 2":3.84e5,"Renilla control light, replicate 1":1.02e6,"Renilla control light, replicate 2":1.05e6,"Outcome":"inactive"}
{"gene":"trr","reagent no.":1,"firefly reporter light, replicate 1":3.22e5,"firefly reporter light, replicate 2":4.35e5,"Renilla control light, replicate 1":1.02e6,"Renilla control light, replicate 2":1.29e6,"Outcome":"inactive"}
{"gene":"trr","reagent no.":2,"firefly reporter light, replicate 1":3.26e5,"firefly reporter light, replicate 2":2.80e5,"Renilla control light, replicate 1":1.53e6,"Renilla control light, replicate 2":1.36e6,"Outcome":"inactive"}
{"gene":"DCTN5-p25","reagent no.":1,"firefly reporter light, replicate 1":2.19e5,"firefly reporter light, replicate 2":1.97e5,"Renilla control light, replicate 1":1.91e6,"Renilla control light, replicate 2":2.04e6,"Outcome":"inactive"}
{"gene":"DCTN5-p25","reagent no.":2,"firefly reporter light, replicate 1":3.30e5,"firefly reporter light, replicate 2":3.34e5,"Renilla control light, replicate 1":8.59e5,"Renilla control light, replicate 2":8.35e5,"Outcome":"inactive"}
{"gene":"CG4842","reagent no.":1,"firefly reporter light, replicate 1":4.00e5,"firefly reporter light, replicate 2":3.36e5,"Renilla control light, replicate 1":2.96e6,"Renilla control light, replicate 2":2.68e6,"Outcome":"inactive"}
{"gene":"Sr-CIV","reagent no.":1,"firefly reporter light, replicate 1":1.55e5,"firefly reporter light, replicate 2":1.06e5,"Renilla control light, replicate 1":9.65e5,"Renilla control light, replicate 2":1.06e6,"Outcome":"inactive"}
{"gene":"Sr-CIV","reagent no.":2,"firefly reporter light, replicate 1":7.23e5,"firefly reporter light, replicate 2":6.37e5,"Renilla control light, replicate 1":7.37e5,"Renilla control light, replicate 2":7.00e5,"Outcome":"inactive"}
{"gene":"lilli","reagent no.":1,"firefly reporter light, replicate 1":1.92e5,"firefly reporter light, replicate 2":1.62e5,"Renilla control light, replicate 1":3.00e6,"Renilla control light, replicate 2":2.12e6,"Outcome":"inactive"}
{"gene":"by","reagent no.":1,"firefly reporter light, replicate 1":1.61e5,"firefly reporter light, replicate 2":1.66e5,"Renilla control light, replicate 1":3.27e6,"Renilla control light, replicate 2":3.09e6,"Outcome":"inactive"}
{"gene":"by","reagent no.":2,"firefly reporter light, replicate 1":4.86e5,"firefly reporter light, replicate 2":4.18e5,"Renilla control light, replicate 1":1.37e6,"Renilla control light, replicate 2":1.52e6,"Outcome":"inactive"}

2 of these entries, set out differently:
Sr-CIV #1 — firefly reporter light, replicate 1: 1.55e5; firefly reporter light, replicate 2: 1.06e5; Renilla control light, replicate 1: 9.65e5; Renilla control light, replicate 2: 1.06e6; Outcome: inactive
Sr-CIV #2 — firefly reporter light, replicate 1: 7.23e5; firefly reporter light, replicate 2: 6.37e5; Renilla control light, replicate 1: 7.37e5; Renilla control light, replicate 2: 7.00e5; Outcome: inactive
